# Assay results reported in publication PMC10402268.
# Sequences of proteins named here, by UniProt entry; tags and fusion partners are left off. A change or cut given only in a name is not applied to a line headed by its entry.
# UniProt Q01705: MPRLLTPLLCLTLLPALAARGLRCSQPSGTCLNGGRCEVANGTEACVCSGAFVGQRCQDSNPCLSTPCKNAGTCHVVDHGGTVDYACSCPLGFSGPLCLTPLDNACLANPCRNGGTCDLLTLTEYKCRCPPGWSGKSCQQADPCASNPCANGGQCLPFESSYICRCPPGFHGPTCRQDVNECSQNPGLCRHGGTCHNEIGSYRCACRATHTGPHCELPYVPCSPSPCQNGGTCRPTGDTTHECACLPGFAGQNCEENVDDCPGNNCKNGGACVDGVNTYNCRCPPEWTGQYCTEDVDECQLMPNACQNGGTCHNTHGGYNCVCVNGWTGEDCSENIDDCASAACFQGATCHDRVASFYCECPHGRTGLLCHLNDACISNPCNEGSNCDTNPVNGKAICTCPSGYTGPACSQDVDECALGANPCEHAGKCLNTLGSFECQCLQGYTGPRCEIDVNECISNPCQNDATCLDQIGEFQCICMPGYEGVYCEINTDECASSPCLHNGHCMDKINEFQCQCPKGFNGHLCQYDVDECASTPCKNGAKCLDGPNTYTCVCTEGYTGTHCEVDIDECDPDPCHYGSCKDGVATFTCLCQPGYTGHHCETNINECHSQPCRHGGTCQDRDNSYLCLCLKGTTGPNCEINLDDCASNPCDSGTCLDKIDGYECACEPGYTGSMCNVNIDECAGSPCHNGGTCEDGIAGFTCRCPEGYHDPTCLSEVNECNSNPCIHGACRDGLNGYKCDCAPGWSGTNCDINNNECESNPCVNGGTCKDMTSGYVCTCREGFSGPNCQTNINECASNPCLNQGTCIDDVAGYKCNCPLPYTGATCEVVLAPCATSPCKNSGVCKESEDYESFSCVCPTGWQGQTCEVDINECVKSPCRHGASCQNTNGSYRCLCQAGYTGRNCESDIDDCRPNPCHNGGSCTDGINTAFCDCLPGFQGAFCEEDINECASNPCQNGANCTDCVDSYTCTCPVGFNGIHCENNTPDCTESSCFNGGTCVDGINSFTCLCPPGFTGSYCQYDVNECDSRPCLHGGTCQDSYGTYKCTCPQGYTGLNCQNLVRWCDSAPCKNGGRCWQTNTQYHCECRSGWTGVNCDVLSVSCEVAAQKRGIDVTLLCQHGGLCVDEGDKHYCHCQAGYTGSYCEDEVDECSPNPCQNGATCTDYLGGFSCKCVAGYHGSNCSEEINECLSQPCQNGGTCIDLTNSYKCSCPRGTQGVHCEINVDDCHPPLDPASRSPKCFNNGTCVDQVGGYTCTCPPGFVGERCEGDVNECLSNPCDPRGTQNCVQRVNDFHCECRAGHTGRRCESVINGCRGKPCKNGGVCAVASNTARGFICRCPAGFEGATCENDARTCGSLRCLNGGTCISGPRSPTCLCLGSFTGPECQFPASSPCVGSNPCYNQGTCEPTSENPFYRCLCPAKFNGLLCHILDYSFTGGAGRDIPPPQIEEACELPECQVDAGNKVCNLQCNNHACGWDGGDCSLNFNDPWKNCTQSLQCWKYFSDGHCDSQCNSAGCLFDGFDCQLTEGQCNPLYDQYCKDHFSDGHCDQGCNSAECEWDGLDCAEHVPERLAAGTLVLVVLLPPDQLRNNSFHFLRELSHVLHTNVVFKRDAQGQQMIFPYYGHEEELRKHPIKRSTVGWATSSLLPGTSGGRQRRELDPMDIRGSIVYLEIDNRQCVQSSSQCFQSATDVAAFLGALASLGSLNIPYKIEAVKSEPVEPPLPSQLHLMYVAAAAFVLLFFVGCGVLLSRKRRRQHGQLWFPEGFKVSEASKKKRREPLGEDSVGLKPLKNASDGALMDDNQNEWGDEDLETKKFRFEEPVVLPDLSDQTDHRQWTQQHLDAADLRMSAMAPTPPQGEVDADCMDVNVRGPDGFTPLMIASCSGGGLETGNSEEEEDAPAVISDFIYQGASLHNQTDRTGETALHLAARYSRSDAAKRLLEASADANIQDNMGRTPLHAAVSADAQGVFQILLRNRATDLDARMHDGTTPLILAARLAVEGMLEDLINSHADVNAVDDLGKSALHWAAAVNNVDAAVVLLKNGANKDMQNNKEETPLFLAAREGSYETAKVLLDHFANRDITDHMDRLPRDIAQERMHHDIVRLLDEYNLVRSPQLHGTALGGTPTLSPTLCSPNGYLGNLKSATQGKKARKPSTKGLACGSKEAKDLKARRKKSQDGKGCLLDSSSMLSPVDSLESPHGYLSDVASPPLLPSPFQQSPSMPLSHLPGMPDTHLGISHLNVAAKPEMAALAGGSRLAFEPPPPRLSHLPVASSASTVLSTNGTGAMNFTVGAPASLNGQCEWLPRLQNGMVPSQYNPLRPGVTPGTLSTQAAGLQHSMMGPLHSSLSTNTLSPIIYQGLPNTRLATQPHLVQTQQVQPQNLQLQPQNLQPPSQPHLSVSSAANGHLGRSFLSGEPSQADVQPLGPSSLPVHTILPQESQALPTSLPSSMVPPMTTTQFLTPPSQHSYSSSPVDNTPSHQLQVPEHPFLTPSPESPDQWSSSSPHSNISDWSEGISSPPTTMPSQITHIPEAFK
# UniProt P31695: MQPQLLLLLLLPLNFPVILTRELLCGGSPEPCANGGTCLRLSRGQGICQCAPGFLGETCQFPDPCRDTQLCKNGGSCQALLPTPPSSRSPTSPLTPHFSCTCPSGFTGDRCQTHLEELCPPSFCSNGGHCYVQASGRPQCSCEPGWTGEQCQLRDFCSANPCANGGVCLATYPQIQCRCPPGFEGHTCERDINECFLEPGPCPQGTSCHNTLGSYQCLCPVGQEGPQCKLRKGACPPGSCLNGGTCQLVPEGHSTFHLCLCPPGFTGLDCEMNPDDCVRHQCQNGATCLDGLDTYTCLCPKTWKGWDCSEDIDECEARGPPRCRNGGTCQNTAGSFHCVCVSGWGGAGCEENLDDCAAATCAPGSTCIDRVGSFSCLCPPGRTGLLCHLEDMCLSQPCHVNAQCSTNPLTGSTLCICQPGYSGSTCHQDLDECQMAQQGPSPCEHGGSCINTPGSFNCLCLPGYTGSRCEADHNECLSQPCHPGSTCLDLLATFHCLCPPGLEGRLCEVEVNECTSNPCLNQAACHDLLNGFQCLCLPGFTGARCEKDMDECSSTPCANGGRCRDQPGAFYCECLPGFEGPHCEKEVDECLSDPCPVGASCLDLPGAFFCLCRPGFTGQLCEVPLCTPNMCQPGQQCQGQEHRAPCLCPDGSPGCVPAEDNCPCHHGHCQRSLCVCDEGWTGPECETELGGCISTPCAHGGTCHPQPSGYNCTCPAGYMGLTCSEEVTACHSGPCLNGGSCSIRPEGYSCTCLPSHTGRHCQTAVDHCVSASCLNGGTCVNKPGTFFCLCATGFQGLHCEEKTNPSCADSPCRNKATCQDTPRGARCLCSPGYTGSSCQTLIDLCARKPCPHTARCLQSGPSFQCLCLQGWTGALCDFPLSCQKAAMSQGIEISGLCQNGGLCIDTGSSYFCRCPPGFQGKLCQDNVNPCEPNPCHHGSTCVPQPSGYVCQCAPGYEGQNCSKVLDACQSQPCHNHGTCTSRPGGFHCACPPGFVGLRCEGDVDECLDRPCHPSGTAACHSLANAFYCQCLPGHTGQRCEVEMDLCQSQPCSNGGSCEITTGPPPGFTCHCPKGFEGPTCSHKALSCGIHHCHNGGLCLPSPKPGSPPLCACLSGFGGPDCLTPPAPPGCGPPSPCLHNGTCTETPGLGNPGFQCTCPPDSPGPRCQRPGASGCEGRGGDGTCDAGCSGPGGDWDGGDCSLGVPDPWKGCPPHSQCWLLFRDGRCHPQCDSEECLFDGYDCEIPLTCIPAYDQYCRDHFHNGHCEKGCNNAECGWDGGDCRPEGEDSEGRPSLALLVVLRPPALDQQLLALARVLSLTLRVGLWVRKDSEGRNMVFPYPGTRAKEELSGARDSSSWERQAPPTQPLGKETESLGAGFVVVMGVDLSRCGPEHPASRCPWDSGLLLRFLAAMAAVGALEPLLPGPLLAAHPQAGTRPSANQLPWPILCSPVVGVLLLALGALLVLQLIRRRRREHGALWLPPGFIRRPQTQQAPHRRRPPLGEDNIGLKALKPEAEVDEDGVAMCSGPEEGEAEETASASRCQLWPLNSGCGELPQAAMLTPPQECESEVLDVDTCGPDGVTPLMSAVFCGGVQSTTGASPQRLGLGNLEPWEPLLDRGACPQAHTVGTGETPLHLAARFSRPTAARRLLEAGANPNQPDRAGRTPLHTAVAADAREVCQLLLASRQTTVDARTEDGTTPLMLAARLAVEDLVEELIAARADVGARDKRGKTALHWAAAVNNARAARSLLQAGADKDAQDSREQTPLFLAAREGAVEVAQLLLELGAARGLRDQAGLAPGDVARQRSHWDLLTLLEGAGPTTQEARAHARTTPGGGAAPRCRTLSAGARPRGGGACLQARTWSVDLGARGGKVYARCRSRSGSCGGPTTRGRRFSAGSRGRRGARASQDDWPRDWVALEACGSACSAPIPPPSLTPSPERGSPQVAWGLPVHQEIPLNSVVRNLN
# Legend:
# Assay in all cases: co-IP; 293T cells co-transfected with one FLAG-tagged and one HA- or MYC-tagged NICD; lysates 48 h after transfection; anti-FLAG resin; western blot with anti-HA or anti-MYC
# [1] = target: N1ICD lacking the C-terminus (RAM/Ank), FLAG-tagged (mouse) (UniProt Q01705)
# [2] = target: Notch2 intracellular domain (N2ICD), mouse (mouse) (UniProt O35516)
# [3] = target: Notch3 intracellular domain (N3ICD), mouse (mouse) (UniProt Q61982)
# [4] = target: isolated N1ICD ankyrin domain (Ank), FLAG-tagged (mouse) (UniProt Q01705)
# [5] = target: Notch4 intracellular domain (N4ICD), mouse (mouse) (UniProt P31695)
binding [1],binding [2],binding [3],binding [4],binding [5],Substance
binds,binds,binds,binds,,"Notch4 intracellular domain (N4ICD), mouse (from UniProt P31695) (domain or fragment)"
,,binds weakly,,binds,"Notch2 intracellular domain (N2ICD), mouse (from UniProt O35516) (domain or fragment)"
,,,,binds,"Notch1 intracellular domain (N1ICD), mouse (from UniProt Q01705) (domain or fragment)"
,binds,,,binds,"Notch3 intracellular domain (N3ICD), mouse (from UniProt Q61982) (domain or fragment)"

# These are yes or no findings as the source states them, for the method shown. In cells and extracts the contact can be indirect. Binding can be weak; no strength is given.
